{"source": "PubChem BioAssay AID1347076", "about": "(National Center for Advancing Translational Sciences (NCATS), 2019)", "note": "In all, about 400,000 compounds went through this assay and about 13,000 (3.2%) were called active. The inconclusive results got no clear call from the source; some entries with a clear call stand among them for comparison. The call rests on the fitted dose curve; in most records, active means well fitted cell-killing curve with a large enough effect; inconclusive means small, poorly fitted or top-dose-only effect, or effect the other way; inactive means flat fitted curve, though single readings scatter. Where the call is inconclusive, the potency comes from a doubtful curve fit. On the % scale 0 is the no-effect control and ±100 the full control effect; potency means the concentration at half of the fitted maximal effect."}
{"test": "qHTS assay for MDR1-selective chemotherapeutics: Primary screen using the drug-selected MDR subline cells KB-V1; further: nearly all actives have a fitted effect of over 60% in size", "settings": "KB-V1 MDR cells viability, CellTiter-Glo, 72 h; activity change, negative = cytotoxicity: at 46.1 µM (top of the series)", "procedure,_shortened": "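In this primary screen, KB-V1 cells overexpressing P-gp are incubated with library compounds (lowest to highest concentration) for 72 h at 37 degrees C before a luminescent ATP viability read.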"}
{"smiles": "CCOc1cc([N+](=O)[O-])c2nc(N)sc2c1", "Potency": "inconclusive: 29.1 µM [cytotoxic, single point]"}
{"smiles": "Cc1[nH][nH]c(=O)c1N=Nc1ccc(Cl)cc1", "Potency": "inconclusive: 29.1 µM [cytotoxic, single point]"}
{"smiles": "CCC(C)NS(=O)(=O)c1ccc(NC(=O)C(Sc2ccccc2)c2ccccc2)cc1", "note": "(centres undefined)", "Potency": "active: 16.4 µM"}
{"smiles": "Cc1ccc(N(C)S(=O)(=O)c2csc(C(N)=O)c2)cc1C", "activity change, negative = cytotoxicity": "inactive: 16.8%"}
{"smiles": "Cc1ccc2c(CC(=O)Nc3ccc(S(=O)(=O)N4CCCCC4)cc3)coc2c1", "activity change, negative = cytotoxicity": "inactive: 20%"}
{"smiles": "CS(=O)(=O)NNC(=O)Cn1nnc(-c2cc(C(F)(F)F)cc(C(F)(F)F)c2)n1", "Potency": "inconclusive: 29.1 µM [rising, partial curve, poor fit]"}
{"smiles": "CCC(C)[C@H]1CN=C(N)N1CC1CCCCC1", "note": "(some centres undefined)", "activity change, negative = cytotoxicity": "inactive: -5.66%"}
{"smiles": "Cc1cccc(NC(=S)N(CCN(C)C)Cc2cc3cc(C)ccc3[nH]c2=O)c1", "Potency": "inconclusive: 18.4 µM [cytotoxic, single point]"}
{"smiles": "CCCCNC(=O)C(NC(=O)c1cccs1)C(=O)c1ccccc1", "note": "(centres undefined)", "Potency": "inconclusive: 13 µM [cytotoxic, partial curve, poor fit]"}
{"smiles": "Nc1cc(N)nc(SCC(=O)NC(=O)NC2CCCC2)n1", "Potency": "inconclusive: 29.1 µM [rising, partial curve, poor fit]"}
{"smiles": "CC1(C)OC(=O)C2=C(C[C@@H](C3CCCC3)O[C@@H]2c2ccc(Cl)cc2)O1", "Potency": "inconclusive: 20.6 µM [cytotoxic, single point]"}
{"smiles": "CCc1cc2c(SCC(=O)N3CCN(C(=O)c4cccs4)CC3)ncnc2s1", "Potency": "inconclusive: 10.3 µM [cytotoxic, partial curve]"}
{"smiles": "COc1ccc(NC(=O)CSc2ccc3nnc(-c4ccccn4)n3n2)c(OC)c1", "activity change, negative = cytotoxicity": "inactive: -18.9%"}
{"smiles": "COc1ccc(CNC(=O)/C=C/C(=O)O)cc1OC", "activity change, negative = cytotoxicity": "inactive: 22.6%"}
{"smiles": "Cc1ccc(NC(=S)N(Cc2cccs2)Cc2cc3cccc(C)c3[nH]c2=O)cc1", "Potency": "inconclusive: 5.8 µM [cytotoxic, partial curve]"}
{"smiles": "COC(=O)c1cc(OC)c(OC)cc1NC(=S)N1CCCC(CO)C1", "note": "(centres undefined)", "Potency": "inconclusive: 13 µM [cytotoxic, partial curve, poor fit]"}
{"smiles": "CC(=O)c1cccc(S(=O)(=O)NCCC(=O)NC2CCCCCC2)c1", "Potency": "inconclusive: 18.4 µM [rising, single point]"}
{"smiles": "O=C(CN1C(=O)NC2(CCCCCCC2)C1=O)NCc1ccc(F)cc1", "Potency": "inconclusive: 16.4 µM [rising, single point]"}
{"smiles": "COc1ccc(N2CCN(S(=O)(=O)CCNC(=O)COc3ccccc3OC)CC2)cc1", "activity change, negative = cytotoxicity": "inactive: 0.302%"}
{"smiles": "c1ccc(CCc2nn3c(Cc4ccccc4)nnc3s2)cc1", "Potency": "inconclusive: 20.6 µM [cytotoxic, single point]"}
{"smiles": "Cc1nn(C)cc1S(=O)(=O)Nc1ccc(C(F)(F)F)cc1", "activity change, negative = cytotoxicity": "inactive: 17.7%"}
{"smiles": "CCOc1ccc(Cl)cc1-c1cc(C(=O)Nc2cc(OC)ccc2OC)[nH]n1", "activity change, negative = cytotoxicity": "inactive: -0.571%"}
{"smiles": "O=C(Nc1cccc(S(=O)(=O)N2CCCCC2)c1)c1ccc(S(=O)(=O)C(F)F)cc1", "Potency": "active: 7.31 µM"}
{"smiles": "O=C(NCCOc1nc(N2CCOCC2)nc(N2CCOCC2)n1)Nc1ccccc1", "activity change, negative = cytotoxicity": "inactive: -7.03%"}
{"smiles": "CC1(C(=O)NCc2ccccc2)CSCC(=O)N1Cc1cccc(F)c1", "note": "(centres undefined)", "Potency": "inconclusive: 23.1 µM [cytotoxic, partial curve, poor fit]"}
{"smiles": "CC(=O)Oc1c(C)c2c3c(c1OC(C)=O)[C@@H](C)CC[C@@H]3[C@@H](C)C[C@H]2C=C(C)C", "Potency": "inconclusive: 20.6 µM [cytotoxic, single point]"}
{"smiles": "Cc1ccccc1N1CCN(S(=O)(=O)c2nnc(NC(=O)c3ccco3)s2)CC1", "Potency": "inconclusive: 3.66 µM [rising, full curve]"}
{"smiles": "Cc1cc(NC(=O)COC(=O)C(Nc2ccc(C(F)(F)F)cc2Cl)C(C)C)no1", "note": "(centres undefined)", "activity change, negative = cytotoxicity": "inactive: -22%"}
{"smiles": "O=C(NCc1ccco1)c1sc(=S)n2c1[nH]c(=O)c1ccccc12", "Potency": "active: 20.6 µM"}
{"smiles": "Cn1c(=O)c2c(nc(SCC(=O)Nc3ccccc3F)n2Cc2ccc(Cl)cc2)n(C)c1=O", "Potency": "inconclusive: 0.517 µM [cytotoxic, partial curve, poor fit]"}
{"smiles": "O=C(CSc1nnc(-c2ccco2)n1-c1ccccc1)NCc1ccc2c(c1)OCO2", "activity change, negative = cytotoxicity": "inactive: 23.5%"}
{"smiles": "COC(=O)c1c(C)oc2ccc(N(C(=O)Oc3ccccc3)S(=O)(=O)c3ccccc3)cc12", "Potency": "active: 2.91 µM"}
{"smiles": "Cc1cccc(C2=NC(C(F)(F)F)(C(F)(F)F)c3c(n(-c4ccc(F)cc4)c(=O)[nH]c3=O)N2)c1", "Potency": "inconclusive: 5.8 µM [cytotoxic, full curve]"}
{"smiles": "CC(OC(=O)c1ccccc1NCCO)C(=O)NC1CCCCC1C", "note": "(centres undefined)", "Potency": "active: 9.2 µM"}
{"smiles": "C=CCn1c(-c2ccc(Cl)cc2)cnc1SC(C)C(=O)NC(N)=O", "note": "(centres undefined)", "Potency": "inconclusive: 10.3 µM [cytotoxic, partial curve]"}
{"smiles": "Cc1ccc(CNC(=O)COc2ccc(C(=O)c3ccc(F)cc3)cc2)cc1", "Potency": "inconclusive: 29.1 µM [cytotoxic, single point]"}
{"smiles": "Cc1ccc2c(c1)c1c(n2CC(O)Cn2c(C)nc3ccccc32)/C(=N\\O)CCC1", "note": "(centres undefined)", "Potency": "inconclusive: 29.1 µM [cytotoxic, single point]"}
{"smiles": "COc1ccc(Cl)cc1NC(=O)CN1CCN(C(=O)N2CCOCC2)CC1", "Potency": "inconclusive: 20.6 µM [cytotoxic, single point]"}
{"smiles": "Cc1cccc2c1N(C(=O)c1ccco1)C(C)(C)c1ssc(=S)c1-2", "Potency": "inconclusive: 23.1 µM [cytotoxic, single point]"}
{"smiles": "COc1ccc2cc3c(N)nn(C(=O)c4ccccc4[N+](=O)[O-])c3nc2c1", "Potency": "inconclusive: 14.6 µM [cytotoxic, partial curve]"}
{"smiles": "Cn1c(SCCS(=O)(=O)c2ccc(Cl)cc2)nnc1-c1ccccc1", "activity change, negative = cytotoxicity": "inconclusive: -48.1%"}
{"smiles": "O=C(NCC(=O)N1CCN(Cc2c(F)cccc2Cl)CC1)c1cccs1", "Potency": "inconclusive: 29.1 µM [cytotoxic, single point]"}
{"smiles": "CCn1c2ccccc2c2cc(/C=N/NC(=O)c3cccc(C)c3)ccc21", "Potency": "active: 5.8 µM"}
{"smiles": "Cn1c(=O)c2[nH]c(CCCCCCCc3nc4ccccc4[nH]3)nc2n(C)c1=O", "activity change, negative = cytotoxicity": "inactive: 14.1%"}
